No constants are given. Whether binding was seen depends on the method and setting. In cells and extracts the contact can be indirect. Some entries that bind do so weakly or less than the wild type. For part of these data: Where a sequence is shown, tags or fusion partners need not be part of it.
T1: Flag-tagged human EFHD2 (EF-hand domain-containing protein D2) (human) (UniProt Q96C19)
T1 sequence: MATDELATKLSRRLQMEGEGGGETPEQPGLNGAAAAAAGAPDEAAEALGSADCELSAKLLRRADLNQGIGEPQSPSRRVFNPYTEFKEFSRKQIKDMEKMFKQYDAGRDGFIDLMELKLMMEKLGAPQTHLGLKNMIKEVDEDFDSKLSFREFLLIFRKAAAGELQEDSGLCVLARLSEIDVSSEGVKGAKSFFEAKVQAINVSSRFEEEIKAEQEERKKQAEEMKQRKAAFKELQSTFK

Amino acid sequences for entries named in this document (tags omitted).
UniProt Q13546: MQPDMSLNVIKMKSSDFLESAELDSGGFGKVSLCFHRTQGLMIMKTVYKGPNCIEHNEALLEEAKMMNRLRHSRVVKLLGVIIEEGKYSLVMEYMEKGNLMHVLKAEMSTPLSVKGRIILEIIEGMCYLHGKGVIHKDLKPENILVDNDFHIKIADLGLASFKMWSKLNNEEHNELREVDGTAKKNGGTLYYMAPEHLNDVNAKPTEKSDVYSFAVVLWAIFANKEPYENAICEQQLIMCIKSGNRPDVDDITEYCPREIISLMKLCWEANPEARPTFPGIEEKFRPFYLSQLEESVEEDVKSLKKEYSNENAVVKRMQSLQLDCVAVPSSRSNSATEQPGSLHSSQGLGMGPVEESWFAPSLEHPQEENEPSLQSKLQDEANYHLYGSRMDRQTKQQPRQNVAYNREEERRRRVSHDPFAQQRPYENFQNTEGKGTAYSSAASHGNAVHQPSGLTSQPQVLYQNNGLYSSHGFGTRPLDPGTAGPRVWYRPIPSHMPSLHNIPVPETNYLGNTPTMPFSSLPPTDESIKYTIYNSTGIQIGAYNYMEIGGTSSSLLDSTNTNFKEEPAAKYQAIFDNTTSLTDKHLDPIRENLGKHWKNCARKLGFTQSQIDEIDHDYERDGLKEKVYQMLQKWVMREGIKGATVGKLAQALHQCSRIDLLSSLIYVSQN

B1: TRADD (protein, UniProt Q15628 1-312)
chain: MAAGQNGHEEWVGSAYLFVESSLDKVVLSDAYAHPQQKVAVYRALQAALAESGGSPDVLQMLKIHRSDPQLIVQLRFCGRQPCGRFLRAYREGALRAALQRSLAAALAQHSVPLQLELRAGAERLDALLADEERCLSCILAQQPDRLRDEELAELEDALRNLKCGSGARGGDGEVASAPLQPPVPSLSEVKPPPPPPPAQTFLFQGQPVVNRPLSLKDQQTFARSVGLKWRKVGRSLQRGCRALRDPALDSLAYEYEREGLYEQAFQLLRRFVQAEGRRATLQRLVEALEENELTSLAEDLLGLTDPNGGLA
B2: endogenous EFHD2 (protein, UniProt Q96C19 1-240)
chain: T1 sequence

What was measured:
[1] = target: T1, Flag-tagged human EFHD2 (EF-hand domain-containing protein D2) (human); assay: co-IP; lysates of HCT-116 cells overexpressing Flag-EFHD2, treated with 50 ng/ml TNF for the indicated time, immunoprecipitated with anti-FLAG M2 magnetic beads, western blot
[2] = target: endogenous RIPK1 (human (endogenous in HCT-116)) (UniProt Q13546); assay: co-IP; lysates of HCT-116 cells treated with TNF for the indicated time, immunoprecipitated with anti-RIPK1 (CST #3493), western blot for endogenous EFHD2

Row | Molecule | binding [1] | binding [2]
1 | endogenous RIPK1 (from UniProt Q13546 1-671) | binds | –
2 | B1 | binds | –
3 | B2 | – | binds
